{"sequences": {"note": "The chains behind the UniProt entries cited, without tags or fusion partners. Residues count along the entry.", "UniProt Q9R0G6, residues 20-755": "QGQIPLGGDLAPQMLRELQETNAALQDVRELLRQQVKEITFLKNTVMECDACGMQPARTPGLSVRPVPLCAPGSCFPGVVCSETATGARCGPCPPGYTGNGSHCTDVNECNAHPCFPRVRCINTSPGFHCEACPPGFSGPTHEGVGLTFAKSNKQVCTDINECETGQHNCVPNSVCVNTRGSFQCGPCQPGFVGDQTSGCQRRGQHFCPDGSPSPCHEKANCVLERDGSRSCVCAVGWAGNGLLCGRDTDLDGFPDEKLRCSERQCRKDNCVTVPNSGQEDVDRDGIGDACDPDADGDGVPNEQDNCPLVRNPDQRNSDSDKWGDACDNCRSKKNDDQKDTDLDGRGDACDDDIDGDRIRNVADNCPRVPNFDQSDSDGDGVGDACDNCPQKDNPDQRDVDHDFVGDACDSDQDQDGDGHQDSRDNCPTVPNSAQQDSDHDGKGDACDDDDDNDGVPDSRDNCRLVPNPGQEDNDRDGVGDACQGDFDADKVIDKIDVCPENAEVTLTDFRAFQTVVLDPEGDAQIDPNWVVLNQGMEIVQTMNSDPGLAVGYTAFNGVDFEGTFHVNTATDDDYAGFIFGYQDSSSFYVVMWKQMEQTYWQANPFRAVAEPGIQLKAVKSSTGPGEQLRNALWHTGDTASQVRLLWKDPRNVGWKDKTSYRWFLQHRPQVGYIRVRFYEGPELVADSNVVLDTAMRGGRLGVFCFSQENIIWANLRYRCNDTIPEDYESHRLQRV", "UniProt Q5XIH7": "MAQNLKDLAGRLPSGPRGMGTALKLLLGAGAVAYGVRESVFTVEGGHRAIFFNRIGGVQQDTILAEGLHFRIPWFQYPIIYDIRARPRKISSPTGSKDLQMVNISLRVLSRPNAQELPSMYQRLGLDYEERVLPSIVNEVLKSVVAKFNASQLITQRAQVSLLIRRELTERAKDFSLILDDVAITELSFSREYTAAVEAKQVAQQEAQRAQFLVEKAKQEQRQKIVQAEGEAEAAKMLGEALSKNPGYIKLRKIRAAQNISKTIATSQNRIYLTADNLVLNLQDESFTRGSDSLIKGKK"}, "source": "paper PMC5986769", "molecular_target": "Cartilage oligomeric matrix protein (COMP), full-length mouse, expressed from adenovirus (Ad-COMP) (mouse) (UniProt Q9R0G6)", "assay": "affinity purification with mass spectrometry; mitochondria of COMP adenovirus-infected VSMCs; immunoprecipitation with COMP antibody against control IgG; seven Coomassie-stained bands excised, LC-MS/MS", "note": "Results are given in words; binding and its absence hold for the method and conditions named. In cells and extracts the contact can be indirect. Here binding means that the protein was enriched with, or labelled near, the bait; the list need not be complete.", "data": [{"substance": "Prohibitin 2, endogenous in VSMCs (from UniProt Q5XIH7 1-299)", "values": [{"measurement": "binding", "result": "binds"}]}]}
